According to PubChem BioAssay AID1345085 (National Center for Advancing Translational Sciences (NCATS), 2018):
The shares of active, inactive and inconclusive entries below differ from those in the screen. Potencies beside an inconclusive call are fits to weak or partial responses and may not hold up. Active and inactive are the calls of the source. Calls follow the shape of the dose curve; as a rule, active = well fitted cell-killing curve with a large enough effect; inconclusive = small, poorly fitted or top-dose-only effect, or effect the other way; inactive = no such curve, though single readings can be large or run the other way.

Each compound was assayed on Tov-21-G (assay: Confirmatory qHTS for gynecologic anti-cancer compounds from libraries of approved drugs and bioactive compounds). Conditions: gynecologic cancer cell panel viability, ATPlite luminescence, 48 h; series mostly up to 57.7 µM.
Procedure, shortened: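 1,000 cells/well; 16 h pre-incubation 37 C, 5% CO2; pin-transferred cpd in DMSO, 11 conc (1:3), 57.5 uM–0.977 nM; 48 h; ATPlite, 15 min RT; luminescence → IC50.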
Also: nearly all actives have a fitted effect of over 55% in size.
Potency is read from the fitted curve at half-maximal effect.

SMILES | Potency
O=C(O)C1(Cc2cccc(Nc3nccs3)n2)CCC(Oc2cccc(Cl)c2F)CC1 (centres undefined) | inconclusive: 27.3 µM [cytotoxic, partial curve, poor fit]
CC[C@@]1(O)C(=O)OCc2c1cc1n(c2=O)Cc2cc3cc(O)ccc3nc2-1 | inconclusive: 3.85 µM [cytotoxic, full curve, poor fit]
Cc1nc(N)sc1-c1ccnc(Nc2ccc(N3CCOCC3)cc2)n1 | inconclusive: 5.44 µM [cytotoxic, full curve, poor fit]
CCN(CC)CCNC(=O)c1c(C)[nH]c(/C=C2\C(=O)Nc3ccc(F)cc32)c1C | active: 11.2 µM
CN(Cc1cnc2nc(N)nc(N)c2n1)c1ccc(C(=O)N[C@@H](CCC(=O)O)C(=O)O)cc1 | inactive
N#CC1(c2cccc(C(=O)Nc3cc(Oc4ccc5nc(NC(=O)C6CC6)sc5n4)ccc3F)c2Cl)CC1 | inconclusive: 15.3 µM [cytotoxic, partial curve, poor fit]
NS(=O)(=O)OC[C@@H]1C[C@@H](n2ccc3c(N[C@H]4CCc5ccccc54)ncnc32)C[C@@H]1O | active: 1.72 µM
CC(C)n1nc(-c2cc3cc(O)ccc3[nH]2)c2c(N)ncnc21 | inconclusive: 3.85 µM [cytotoxic, full curve, poor fit]
O=c1[nH]c(=O)n([C@H]2C[C@H](O)[C@@H](CO)O2)cc1Br | inconclusive: 48.5 µM [cytotoxic, partial curve, poor fit]
